In patent US20080056997A1:
Numbering of substitutions follows the chain as printed. No constants are given. Whether binding was seen depends on the method and setting. Some entries that bind do so weakly or less than the wild type. Blank lines part the entries; values can stand above or below the binder they belong to.

By UniProt entry, the sequences of proteins in these tests, tags left out. Residues count along the entry.
UniProt P24821, residues 1533-1621: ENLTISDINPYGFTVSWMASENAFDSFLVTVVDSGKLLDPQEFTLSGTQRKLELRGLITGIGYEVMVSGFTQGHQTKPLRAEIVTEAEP

Biological target: domain C of human tenascin-C (human) (UniProt P24821)
Test: phage display selection and screening as in Example 2

binding: binds
B1: scFv F4 (against the C domain of tenascin-C) (scFv)
scFv: EVQLVESGGGLVQPGGSLRLSCAASGFTFSGSRMGWVRQAPGKGLEWVSAINEEGGQTYYADSVKGRFTISRDNSKNTLYLQMNSLRAEDTAVYYCAKHPPHRPFDYWGQGTLVTVSRGGGGSGGGGSGGGGSSELTQDPAVSVALGQTVRITCQGDSLRLYYASWYQQKPGQAPVLVIYGKSSRPSGIPDRFSGSSSGNTASLTITGAQAEDEADYYCNSSHGPRRPVVFGGGTKLTVLG

binding: binds
B2: scFv G11 (against the C domain of tenascin-C) (scFv)
scFv: B1 scFv with S183N, S184N
